Measurements from article PMC4756840.
For at least one entry, the source does not settle the construct or the ends of the probe. Weaker means in comparison with the reference protein, sequence or condition of that experiment. At least one verdict rests on a figure or table, not on a statement of the authors.

System: LARP1 full length
Test: EMSA
Conditions: 20 mM Tris-HCl pH 8, 150 mM NaCl, 10% glycerol, 1 mM DTT, 1 ug BSA, 0.5 ug tRNA, RNA <2 nM, 30 min on ice, native PAGE at 4 C, recombinant protein, residues 1-1019, protein details: N-terminal 6xHis-MBP, removed by TEV cleavage; for Kd: tRNA and BSA present
[1] = judged non-specific, Kd only in figure, label: 5'-32P

Sequence	Kd (label: 5'-32P)	binding result [1]	other results
CCUCUUUUCCGUGGCGCCUCGGAGGCGUUCAGCUGCUUCAAG [RPS6 5' UTR (5' TOP, 42mer)]	–	–	binding result (prebound at 250 nM LARP1, probe of the competition assay, label: 5'-32P probe, unlabelled as competitor): binds
GAGGACAUCAGGGAUGUUCUUAGAAGUUUCAUGGACGGUUUCACCACACUUAAGGAGAACAUAAUGAGGUUCUGGAGAUCCCCGAACCCCGGGUCCUGGGUGUCCUGCGAACAGGUGCUGCUGGCGCUGCUGCUGCUGCUGGCGCUGCUGCUGCCGCUGCUCAGCGGGGGCCUGCACCUGCUGCUC [BIK CDS2]	> 0.25 µM	–	–
GCAGACACGAAGCCUCCCGGGUGGCUUACAGACGCUGCCAGCAUCGCCGCCGCCAGAGGAGA [BIK 5' UTR]	> 0.25 µM	–	–
GGAAGAGCCAUUCACUCCUGCCCCUGCCCACACGGCAGGUAGCAGGGGGAGUGCUGGUCACACCCCUGUGUGAUAUGUGAUGCCCUCGGCAAAGAAUCUACUGGAAUAGAUUCCGAGGAGCAGGAGUGCUCAAUAAAAUGUUGGUUUCCAGC [BIK 3' UTR construct 3]	–	binds more weakly	–
GGCCGCCUCGGGGCUGGGCAUCCGGCCCCUGGGGCCACCCCUUGUCAGCCGGGUGGGUAGGAACCGUAGACUCGCUCAUCUCGCCUGGGUUUGUCCGCAUGUUG [OAZ1 3' UTR]	–	–	Kd (label: 5'-32P in direct EMSA, unlabelled as competitor): > 0.25 µM
GUCUGAAGUAAGACCCCUCUCCAGAGACAUCUUGAUGGAGACCCUCCUGUAUGAGCAGCUCCUGGAACCCCCGACCAUGGAGGUUCUUGGCAUGACUGACUCUGAAGAGGACCUGGACCCUAUGGAGGACUUCGAUUCUUUGGAAUGCAUGGAGGGCAGUGACGCAUUGGCCCUGCGGCUGGC [BIK CDS1]	> 0.25 µM	–	–
GUGCUGGAACACUGCUGAGGUUUUAUACUCAGGUUUUUUGUUUUUUUUUUAUUCCAGUUUUCGUUUUUUCUAAAAGAUGAAUUCCUAUGGCUCUGCAAUUGUCACCGGUUAACUGUGGCCUGUGCCCAGGAAGAGCCAUUCACUCC [BIK 3' UTR construct 2]	–	binds more weakly	–
UGACCACUGCCCUGGAGGUGGCGGCCUGCUGCUGUUAUCUUUUUAACUGUUUUCUCAUGAUGCCUUUUUAUAUUUAAACCCCGAGAUAGUGCUGGAACACUGCUGAGGU [BIK 3' UTR construct 1]	–	binds more weakly	–
